Test results taken from publication PMC8828467, “Activation mechanism of PINK1” (Nature, 2021).
No constants are given. Whether binding was seen depends on the method and setting. Binding seen in cells or lysates may run through a third protein. Some binding calls cover weakened binding; strength is not graded here.

How the values were obtained:
Test in all cases: cross-linking; HsPINK1 variants expressed in HeLa PINK1−/− cells, OA for 2 h, 2 mM H2O2 in the medium for 10 min, lysis in SDS sample buffer, non-reducing gel, anti-PINK1 blot
[1] = molecular target: HsPINK1 D384A (human) (UniProt Q9BXM7)
[2] = molecular target: HsPINK1(C166A) (human) (UniProt Q9BXM7)
[3] = molecular target: T1, WT HsPINK1 (full length) (human), Q9BXM7; conditions: remark: other sources report otherwise
T1 chain: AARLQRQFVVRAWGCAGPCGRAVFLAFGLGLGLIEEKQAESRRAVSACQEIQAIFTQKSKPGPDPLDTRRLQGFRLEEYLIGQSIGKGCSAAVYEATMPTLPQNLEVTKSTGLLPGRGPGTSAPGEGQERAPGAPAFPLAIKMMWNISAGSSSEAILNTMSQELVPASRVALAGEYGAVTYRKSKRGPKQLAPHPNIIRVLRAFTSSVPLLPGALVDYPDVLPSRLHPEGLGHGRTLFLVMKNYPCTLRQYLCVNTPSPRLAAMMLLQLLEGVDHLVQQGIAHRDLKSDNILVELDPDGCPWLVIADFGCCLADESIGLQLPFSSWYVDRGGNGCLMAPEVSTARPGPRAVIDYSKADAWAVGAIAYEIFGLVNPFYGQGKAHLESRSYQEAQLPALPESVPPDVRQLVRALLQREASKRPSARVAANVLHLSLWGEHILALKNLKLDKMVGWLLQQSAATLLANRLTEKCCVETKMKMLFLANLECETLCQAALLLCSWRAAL

“HsPINK1 D384A (from UniProt Q9BXM7 78-581) (enzyme)” was tested, and the binding [1] was “binds”.

“HsPINK1(C166A) (from UniProt Q9BXM7 78-581) (enzyme)” was tested, and the binding [2] was “no binding”.

B1: WT HsPINK1 (full length), Q9BXM7 78-581 (enzyme)
chain: T1 chain
With B1 the binding [3] was “binds”.
